Test: Monsanto rheograph, accelerators in natural rubber at 160° C.
Conditions: 0.8 parts accelerator, 2.5 parts sulphur

## zinc diisononyldithiocarbamate [Example 1]
  Max. torque: 32.5 kg·cm
  Time to 50% cure: 2.52 min
  Time to 90% cure: 5.40 min
  Time to highest cure rate: 2.26 min
  Time to two point rise: 2.04 min
